Test results as given in PubChem BioAssay AID1794844 (National Center for Advancing Translational Sciences (NCATS), 2023).
The whole screen tested about 2,800 compounds, of which fewer than 10 were called active. Roughly 7% stayed inconclusive and do not appear here. Calls come from the whole dose curve; as a rule, active = well fitted inhibition curve with a large enough effect; inconclusive = small, poorly fitted or top-dose-only effect; inactive = no such curve, though single readings can be large or run the other way. This is one part of the list.

Protein sequences, listed by entry. Tags and fused reporters are not part of them. Lines headed by an entry give the natural chain unless they say otherwise; changes in a name come on top.
UniProt C7C422: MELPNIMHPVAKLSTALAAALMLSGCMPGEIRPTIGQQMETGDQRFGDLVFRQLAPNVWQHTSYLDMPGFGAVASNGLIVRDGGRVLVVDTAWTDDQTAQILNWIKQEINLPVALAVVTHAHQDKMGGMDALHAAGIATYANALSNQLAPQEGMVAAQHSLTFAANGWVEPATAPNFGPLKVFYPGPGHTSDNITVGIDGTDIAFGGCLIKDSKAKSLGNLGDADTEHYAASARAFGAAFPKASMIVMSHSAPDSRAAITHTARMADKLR

target: Metallo-beta-lactamase type 2 (Klebsiella pneumoniae) (UniProt C7C422); test: qHTS to identify inhibitors of the New Delhi Metallo-beta-lactamase (NDM): Nitrocefin screen against the machine-based learning selections.; note: % of control where 0% means no effect; conditions: NDM-1 enzyme, nitrocefin hydrolysis, absorbance 485 nm; activity, negative = inhibition: at the top concentration
In short: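 NDM-1 (2 nM final) in 50 mM HEPES pH 7.0, 1 uM Zn2SO4, 0.01% Tween20 was preincubated with compounds for >30 min. Nitrocefin (16.7 uM final) was read at 485 nm after 15 min, and meropenem (50 uM final) at 300 nm after 30 min.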

activity, negative = inhibition, inactive:
OC1(c2csc(CN3CCc4ccccc4C3)n2)CCN(C2CCOCC2)CC1 2.82% [at 57.5 µM]
COc1ccccc1C(=O)NCc1nnc2cc(-c3nc(C4CC4)no3)ccn12 -6.28%
CNc1ncc(C(=O)N2CCCC(CC=C(C)C)(C(=O)O)C2)cn1 (stereo unspecified) -3.1%
COc1cccc(CN[C@@H]2CCC[C@@H](C(=O)NC3CCOCC3)CC(=O)N(C)C2)c1 6.8% [at 57.5 µM]
N#Cc1cccnc1N1CCC(NC(=O)c2ccc3cccc(F)c3n2)CC1 -2.27%
COc1ccc(-c2cc(-c3cccc(O)c3)cn3cncc23)cc1 -22.7% [at 57.5 µM]
CN(CCc1ccccn1)[C@@H]1[C@H](O)[C@H](CO)O[C@@H]1CNS(=O)(=O)c1cccs1 -3.53%
COC[C@H]1CCCN1C(=O)[C@@H](C)C1CC[C@@]2(C)CC[C@H](NC(=O)CC(C)(C)C)[C@@H](C)[C@@H]2[C@H]1O (stereo partly specified) -2.54%
Cn1nccc1C(=O)N1CCC(Cc2nc(C3CCOCC3)no2)CC1 2.9%
Cc1cc(C)cc(-c2ccc(C(=O)N3CCC(Oc4cccnc4)CC3)cn2)c1 0.58%
Oc1ccccc1-c1cnc2n[nH]c(-c3ccc4c(c3)OCO4)c2n1 10.3% [at 57.5 µM]
COc1ccc(-c2cnc3[nH]cc(CC(=O)NCCc4ccccn4)c3c2)cc1 25% [at 57.5 µM]
Oc1cccc(-c2cc3c(cn2)NCCN(Cc2ccccc2)C3)c1 6.41% [at 57.5 µM]
CN(C)c1ccc(-c2nnnn2[C@H]2CO[C@H]3[C@@H]2OC[C@@H]3NS(=O)(=O)c2ccc3ccccc3c2)cc1 -2.44%
O=C(NCCCc1nc2ccc(Cl)cc2[nH]1)[C@H]1CCC[C@@H](O)C1 1.17%
CC(C)(C)c1nnc([C@H]2CCN(C(=O)C3CC3)C2)o1 6.2% [at 76.7 µM]
Cc1ccccc1N1Cc2c(NCC3CC3)ncnc2N(C)CC1=O -9.86%
CCN1CC(C(=O)N(C)Cc2ccc(Oc3ccccc3)cc2)CCC1=O (stereo unspecified) -0.291%
O=C1OC[C@@H]2CCN(Cc3ccc4c(c3)OCO4)Cc3ccc(F)cc3N12 8.6% [at 57.5 µM]
N#Cc1ccc(C(=O)N2C[C@@H]3C[C@H](C2)c2c(/C=C/c4ccc(Cl)cc4)ccc(=O)n2C3)cc1 -0.105%
CCCc1noc(-c2ccn3c(CNC(=O)c4cccc(N(C)C)c4)nnc3c2)n1 -1.47%
CSc1ccc(-c2ccc3c(c2)C(=O)N2CCN(C(=O)CCC(=O)O)C[C@@H]2C(=O)N3)cc1 6.01%
COCCOc1ncccc1-c1noc([C@@H]2CCCN2CC(C)(C)C)n1 0.0168% [at 57.5 µM]
c1ccc(-c2ccc3ncc(Nc4cccnc4)n3n2)cc1 -0.0667% [at 76.7 µM]
O=C(C1CC(=O)N(c2n[nH]c3ccccc23)C1)N1CCC(c2nc3ccccc3[nH]2)CC1 (stereo unspecified) 2.58%
O=C(Nc1ccccc1Cl)N1CCC(Oc2ncccc2C(=O)N2CCCCC2)C1 (stereo unspecified) 1.84%

Quoted at random: 2 compounds from above
activity, negative = inhibition, inactive:
O=C(NCCCc1nc2ccc(Cl)cc2[nH]1)[C@H]1CCC[C@@H](O)C1 1.17%
Cc1ccccc1N1Cc2c(NCC3CC3)ncnc2N(C)CC1=O -9.86%
